Assay results taken from article PMC4869170.

Chains of the proteins cited; added tags and fusions are not shown.
UniProt Q9Y266: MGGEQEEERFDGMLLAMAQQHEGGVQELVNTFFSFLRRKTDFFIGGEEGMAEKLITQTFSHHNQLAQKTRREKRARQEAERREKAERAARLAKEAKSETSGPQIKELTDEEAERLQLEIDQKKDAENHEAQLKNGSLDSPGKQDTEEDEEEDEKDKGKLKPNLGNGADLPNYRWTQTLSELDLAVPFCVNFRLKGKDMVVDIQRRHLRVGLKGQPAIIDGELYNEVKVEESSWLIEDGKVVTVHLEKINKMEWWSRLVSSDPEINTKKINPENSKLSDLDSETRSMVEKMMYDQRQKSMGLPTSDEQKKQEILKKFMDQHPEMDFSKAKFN

How the values were obtained:
Experiment in all cases: affinity purification with mass spectrometry; SF-TAP-tagged bait overexpressed in HEK293T; lysis in 0.5% NP-40 in TBS (30 mM Tris-HCl pH 7.4, 150 mM NaCl); two steps at 4 °C: Strep-Tactin superflow (desthiobiotin elution), then anti-FLAG M2 agarose (FLAG peptide elution); LC-MS/MS; interactions scored by socioaffinity
[1] = biological target: T1, WDR19 (human) (UniProt Q8NEZ3)
T1 sequence: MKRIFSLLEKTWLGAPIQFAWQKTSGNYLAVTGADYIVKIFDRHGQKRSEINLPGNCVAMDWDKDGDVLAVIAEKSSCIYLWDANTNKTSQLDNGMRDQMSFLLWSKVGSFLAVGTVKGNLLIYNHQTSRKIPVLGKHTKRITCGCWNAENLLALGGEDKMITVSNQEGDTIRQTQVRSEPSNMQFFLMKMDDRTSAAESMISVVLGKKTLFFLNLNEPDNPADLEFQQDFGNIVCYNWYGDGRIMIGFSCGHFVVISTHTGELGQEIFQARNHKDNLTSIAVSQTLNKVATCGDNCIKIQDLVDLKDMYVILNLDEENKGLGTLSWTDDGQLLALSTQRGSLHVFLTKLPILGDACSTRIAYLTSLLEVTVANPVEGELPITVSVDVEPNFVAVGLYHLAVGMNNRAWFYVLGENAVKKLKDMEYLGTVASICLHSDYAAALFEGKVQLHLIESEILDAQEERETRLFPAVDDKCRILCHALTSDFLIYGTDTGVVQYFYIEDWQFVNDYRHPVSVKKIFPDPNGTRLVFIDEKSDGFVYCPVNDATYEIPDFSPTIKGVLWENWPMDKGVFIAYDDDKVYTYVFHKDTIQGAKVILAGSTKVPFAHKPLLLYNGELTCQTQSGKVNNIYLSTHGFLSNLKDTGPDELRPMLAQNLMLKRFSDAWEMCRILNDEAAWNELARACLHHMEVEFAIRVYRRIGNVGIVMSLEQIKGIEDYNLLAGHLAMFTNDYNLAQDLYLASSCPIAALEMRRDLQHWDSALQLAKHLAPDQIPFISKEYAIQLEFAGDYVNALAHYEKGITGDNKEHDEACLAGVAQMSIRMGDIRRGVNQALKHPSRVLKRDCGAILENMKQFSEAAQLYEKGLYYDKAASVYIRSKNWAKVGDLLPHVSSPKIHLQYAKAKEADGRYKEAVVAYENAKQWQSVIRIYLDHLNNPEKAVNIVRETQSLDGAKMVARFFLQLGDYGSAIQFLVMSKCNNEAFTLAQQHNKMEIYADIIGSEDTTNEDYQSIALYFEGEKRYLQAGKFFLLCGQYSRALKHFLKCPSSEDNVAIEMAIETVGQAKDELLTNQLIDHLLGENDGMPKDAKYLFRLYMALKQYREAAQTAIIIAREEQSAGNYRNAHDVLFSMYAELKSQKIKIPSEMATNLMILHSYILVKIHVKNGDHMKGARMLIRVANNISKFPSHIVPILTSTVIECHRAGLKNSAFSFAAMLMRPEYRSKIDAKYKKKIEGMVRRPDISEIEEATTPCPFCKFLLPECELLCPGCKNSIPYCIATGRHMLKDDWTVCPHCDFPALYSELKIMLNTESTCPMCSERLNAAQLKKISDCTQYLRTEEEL

[2] = biological target: T2, SPAG16 (human) (UniProt Q8N0X2)
T2 sequence: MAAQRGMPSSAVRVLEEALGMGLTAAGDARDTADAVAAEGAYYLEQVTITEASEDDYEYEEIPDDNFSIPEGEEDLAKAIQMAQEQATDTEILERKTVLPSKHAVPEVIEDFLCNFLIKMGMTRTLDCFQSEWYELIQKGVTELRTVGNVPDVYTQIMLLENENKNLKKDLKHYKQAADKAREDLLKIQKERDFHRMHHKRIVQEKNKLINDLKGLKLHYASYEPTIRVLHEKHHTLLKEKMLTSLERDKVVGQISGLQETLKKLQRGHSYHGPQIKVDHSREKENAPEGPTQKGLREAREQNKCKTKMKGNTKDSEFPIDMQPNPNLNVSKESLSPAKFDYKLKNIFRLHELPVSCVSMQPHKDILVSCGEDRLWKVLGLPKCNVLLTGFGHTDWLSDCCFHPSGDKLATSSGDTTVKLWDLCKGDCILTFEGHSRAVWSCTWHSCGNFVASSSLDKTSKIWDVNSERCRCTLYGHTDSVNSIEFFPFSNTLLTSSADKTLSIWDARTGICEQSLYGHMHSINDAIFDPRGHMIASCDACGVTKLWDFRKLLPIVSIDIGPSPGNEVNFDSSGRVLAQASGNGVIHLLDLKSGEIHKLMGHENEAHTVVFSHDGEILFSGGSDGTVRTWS

[3] = biological target: T3, DNAI2 (human) (UniProt Q9GZS0)
T3 sequence: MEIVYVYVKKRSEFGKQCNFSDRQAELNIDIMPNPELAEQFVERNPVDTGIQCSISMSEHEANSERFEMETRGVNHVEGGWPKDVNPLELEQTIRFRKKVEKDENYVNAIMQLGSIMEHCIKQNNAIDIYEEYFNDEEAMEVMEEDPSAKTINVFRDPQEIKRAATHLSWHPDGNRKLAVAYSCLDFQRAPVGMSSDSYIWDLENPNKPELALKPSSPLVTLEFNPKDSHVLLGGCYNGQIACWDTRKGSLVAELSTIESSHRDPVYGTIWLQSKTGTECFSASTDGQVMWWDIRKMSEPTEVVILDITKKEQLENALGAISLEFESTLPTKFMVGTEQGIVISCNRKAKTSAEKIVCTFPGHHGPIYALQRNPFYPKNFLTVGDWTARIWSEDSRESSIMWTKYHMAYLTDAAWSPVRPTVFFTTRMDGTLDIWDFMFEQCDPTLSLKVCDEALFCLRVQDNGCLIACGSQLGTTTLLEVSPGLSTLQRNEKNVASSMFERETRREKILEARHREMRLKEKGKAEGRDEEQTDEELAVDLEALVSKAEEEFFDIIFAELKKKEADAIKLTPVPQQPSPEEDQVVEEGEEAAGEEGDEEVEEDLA

Measured: binding

NUDC (from UniProt Q9Y266 1-331)
no binding: all assays above

These are yes or no findings as the source states them, for the method shown. In cells and extracts the contact can be indirect. These calls come from enrichment with a bait or labelling near it, and not all partners need be listed. A no says only that the protein was not detected with the bait.
